# According to paper PMC6896172, “Successful Targeting of the Warburg Effect in Prostate Cancer by Glucose-Conjugated 1,4-Naphthoquinones” (Cancers, 2019):
# Further values from the same series stand in other lists.
# Test system: 22Rv1 cells
# Assay: Global proteome analysis (LC-MS/MS, DIA) of differentially expressed proteins
# Assay type: cell-based, human
# Experimental: 22Rv1 cells were seeded in T75 culture bottles (4 × 10^6 cells/bottle in 20 mL/bottle), treated for 48 h with the 5 µM of compound 11 or vehicle (DMSO), harvested by scratching, washed twice with ice-cold PBS and flash-frozen. Cells were lysed and sonicated. The protein extracts were then heat-denaturated, reduced, alkylated and digested by trypsin. Peptides were chromatographically separated using full recovery autosampler vials and a nano-UPLC system (Acquity, Waters Corporation, Milford, MS, USA), coupled via electrospray ionization (ESI) to a tandem mass spectrometer equipped with a quadrupole and an orbitrap (QExactive, Thermo Fisher Scientific, Bremen, Germany), using MS/MS mode in data dependent acquisition (DDA) and data independent acquisition (DIA). The peptides, analyzed with DDA-LC-MS/MS, were identified with the search engine Sequest, integrated in the Proteome Discoverer software version 2.0 (Thermo Fischer Scientific) using the human Uniprot protein database (EMBL; Hinxton Cambridge, UK, release December 2018). […] For the details of sample preparation and proceeding, data acquisition and analysis see the Supplementary information. […]
# serum (FBS, Invitrogen) and 1% penicillin/streptomycin (Invitrogen)). […]
# Cell lines were lysed in 100 mM triethylammonium bicarbonate and 1% w/v sodium deoxycholate buffer followed by probe sonication to destroy polynucleotides and heat induce protein denaturing at 99 °C for 5 min. Protein concentrations were estimated with a bicinchonic acid (BCA) protein assay (Thermo Fisher Scientific, Bremen, Germany). 20 µg of protein were reduced in presence of 10 mM dithiotreithol (Sigma Aldrich) for 30 min at 60 °C followed by cysteine alkylation with 20 mM iodo acetamide (Sigma Aldrich) for 30 min at 37 °C in the dark and enzymatic degradation with sequencing grade trypsin (Promega) over night at 37 °C. Digestion was quenched with 1% formic acid (FA), precipitated sodium deoxycholate removed by centrifugation for 5 min at 14,000 g and the supernatant was dried in a vacuum centrifuge.
# LC-MS/MS in Data Dependent and Data Independent Mode
# Samples were resuspended in 0.1% FA and transferred into a full recovery autosampler vial (Waters). Chromatographic separation was achieved on a nano -UPLC system (Acquity, Waters Corporation, Milford, MS, USA) with a two-buffer-system (buffer A: 0.1% FA in water, buffer B:
# 0.1% FA in Acetonitrile (ACN), both at pH = 3). Attached to the UPLC was a reversed -phase peptide trapping column (Symmetry C18, 180 µm × 20 mm, 100 Å pore size, 5 µm particle size) for desalting, followed by a reversed-phase capillary separation of the tryptic peptides (BEH C18; 75 µm × 200 mm, 130 Å pore size, 1.7 µm particle size), using a 60 min gradient with increasing ACN concentration from 2–30% ACN. The eluting peptides were analyzed on a quadrupole-orbitrap mass spectrometer (QExactive, Thermo Fisher Scientific, Bremen, Germany) in data dependent acquisition (DDA) and data independent acquisition (DIA) for quantification.
# In DDA mode, one replicate of each cell line was randomly chosen and 1 µg per sample was used per LC-MS/MS run to build a reference spectral library used for data extraction of samples acquired in DIA mode. For DDA, the 12 most intense ions per precursor scan (1 × 10 6 ions, 70,000 Resolution, 120 ms fill time) were analyzed by MS/MS (HCD at 25 normalized collision energy, 1 × 105 ions, 17,500 Resolution, 50 ms fill time) in a range of 400–1300 m/z. A dynamic precursor exclusion of 20 s was used. For DIA, 1 µg of each sample was analyzed using a 30 sequential 20 Da fixed window method covering the mass range from 400 –1000 m/z. Per cycle, 2 precursor scans (1 × […]
# 28 normalized collision energy, 1 × 106 ions, 17,500 Resolution, 50 ms fill time) were performed.
# After the first precursor scan, 15 MS/MS scans were performed covering the precursor mass range from 400–700 m/z followed by the second precursor scan and another 15 MS/MS scans ranging from […]
# LC-MS/MS Data Processing and Analysis […]
smiles,measurement,setting,value
CC1(C)OC2OC(C(O)COC3=CC(=O)c4cccc(O)c4C3=O)C(O)C2O1 (stereo not drawn) [Compound 11],Fold change (treated / control),PDIA6_HUMAN Q15084,1.177
same,Fold change (treated / control),PDIP3_HUMAN Q9BY77,0.4965
same,Fold change (treated / control),PDLI5_HUMAN Q96HC4,1.529
same,Fold change (treated / control),PDS5A_HUMAN Q29RF7,0.5949
same,Fold change (treated / control),PEA15_HUMAN Q15121,1.421
same,Fold change (treated / control),PEF1_HUMAN Q9UBV8,1.633
same,Fold change (treated / control),PESC_HUMAN O00541,0.4845
same,Fold change (treated / control),PGAM1_HUMAN P18669,1.273
same,Fold change (treated / control),PGK1_HUMAN P00558,1.461
same,Fold change (treated / control),PGRC1_HUMAN O00264,1.229
same,Fold change (treated / control),PHB_HUMAN P35232,1.154
same,Fold change (treated / control),PIMT_HUMAN P22061,1.252
same,Fold change (treated / control),PIN1_HUMAN Q13526,0.8459
same,Fold change (treated / control),PLAK_HUMAN P14923,0.7459
same,Fold change (treated / control),PLEC_HUMAN Q15149,0.7645
same,Fold change (treated / control),PLST_HUMAN P13797,1.7894
same,Fold change (treated / control),PMYT1_HUMAN Q99640,0.2195
same,Fold change (treated / control),PNPH_HUMAN P00491,1.581
same,Fold change (treated / control),PNPT1_HUMAN Q8TCS8,0.8319
same,Fold change (treated / control),PO210_HUMAN Q8TEM1,0.7212
same,Fold change (treated / control),PP2BA_HUMAN Q08209,1.405
same,Fold change (treated / control),PPCE_HUMAN P48147,1.185
same,Fold change (treated / control),PPIA_HUMAN P62937,1.352
same,Fold change (treated / control),PPIC_HUMAN P45877,0.8138
same,Fold change (treated / control),PPIH_HUMAN O43447,1.279
same,Fold change (treated / control),PPIL1_HUMAN Q9Y3C6,1.335
same,Fold change (treated / control),PR40A_HUMAN O75400,1.476
same,Fold change (treated / control),PRDX1_HUMAN Q06830,1.873
same,Fold change (treated / control),PRDX2_HUMAN P32119,1.3427
same,Fold change (treated / control),PRDX3_HUMAN P30048,1.171
same,Fold change (treated / control),PRDX5_HUMAN P30044,1.226
same,Fold change (treated / control),PRKDC_HUMAN P78527,0.7563
same,Fold change (treated / control),PROF1_HUMAN P07737,1.37
same,Fold change (treated / control),PROF2_HUMAN P35080,1.625
same,Fold change (treated / control),PRP19_HUMAN Q9UMS4,0.7043
same,Fold change (treated / control),PRS6A_HUMAN P17980,1.387
same,Fold change (treated / control),PRS6B_HUMAN P43686,1.428
same,Fold change (treated / control),PRS7_HUMAN P35998,1.348
same,Fold change (treated / control),PRS10_HUMAN P62333,1.155
same,Fold change (treated / control),PSA1_HUMAN P25786,1.304
same,Fold change (treated / control),PSA2_HUMAN P25787,2.482
same,Fold change (treated / control),PSA3_HUMAN P25788,1.56
same,Fold change (treated / control),PSA4_HUMAN P25789,1.56
same,Fold change (treated / control),PSA6_HUMAN P60900,1.4837
same,Fold change (treated / control),PSA7_HUMAN O14818,1.482
same,Fold change (treated / control),PSB2_HUMAN P49721,0.8786
same,Fold change (treated / control),PSB4_HUMAN P28070,1.588
same,Fold change (treated / control),PSD11_HUMAN O00231,1.222
same,Fold change (treated / control),PSDE_HUMAN O00487,1.875
same,Fold change (treated / control),PSMD1_HUMAN Q99460,1.296
same,Fold change (treated / control),PSMD8_HUMAN P48556,1.59
same,Fold change (treated / control),PSPC1_HUMAN Q8WXF1,0.7106
same,Fold change (treated / control),PTH2_HUMAN Q9Y3E5,1.56
same,Fold change (treated / control),PUF60_HUMAN Q9UHX1,1.257
same,Fold change (treated / control),PUR9_HUMAN P31939,1.1359
same,Fold change (treated / control),PYC_HUMAN P11498,0.7167
same,Fold change (treated / control),PYR1_HUMAN P27708,0.8386
same,Fold change (treated / control),QOR_HUMAN Q08257,1.525
same,Fold change (treated / control),RAB1A_HUMAN P62820,1.099
same,Fold change (treated / control),RAB7A_HUMAN P51149,1.361
same,Fold change (treated / control),RAB10_HUMAN P61026,1.293
same,Fold change (treated / control),RAB13_HUMAN P51153,0.5414
same,Fold change (treated / control),RAB14_HUMAN P61106,1.096
same,Fold change (treated / control),RAB18_HUMAN Q9NP72,1.399
same,Fold change (treated / control),RBM3_HUMAN P98179,0.4156
same,Fold change (treated / control),RBM15_HUMAN Q96T37,0.6754
same,Fold change (treated / control),RFC1_HUMAN P35251,0.5451
same,Fold change (treated / control),RFC2_HUMAN P35250,0.5826
same,Fold change (treated / control),RFC3_HUMAN P40938,0.567
same,Fold change (treated / control),RFC4_HUMAN P35249,0.5722
same,Fold change (treated / control),RFC5_HUMAN P40937,0.6148
same,Fold change (treated / control),RGF1B_HUMAN Q0VAM2,2.251
same,Fold change (treated / control),RHG01_HUMAN Q07960,1.41
same,Fold change (treated / control),RL1D1_HUMAN O76021,0.6228
same,Fold change (treated / control),RL4_HUMAN P36578,0.563
same,Fold change (treated / control),RL5_HUMAN P46777,0.7312
same,Fold change (treated / control),RL7A_HUMAN P62424,0.6916
same,Fold change (treated / control),RL8_HUMAN P62917,0.705
same,Fold change (treated / control),RL10A_HUMAN P62906,0.5923
same,Fold change (treated / control),RL13_HUMAN P26373,0.6224
same,Fold change (treated / control),RL15_HUMAN P61313,0.6202
same,Fold change (treated / control),RL18_HUMAN Q07020,0.4989
same,Fold change (treated / control),RL19_HUMAN P84098,0.3072
same,Fold change (treated / control),RL21_HUMAN P46778,0.7748
same,Fold change (treated / control),RL22_HUMAN P35268,1.3987
same,Fold change (treated / control),RL23_HUMAN P62829,0.6468
same,Fold change (treated / control),RL24_HUMAN P83731,0.7258
same,Fold change (treated / control),RL27A_HUMAN P46776,0.6191
same,Fold change (treated / control),RL29_HUMAN P47914,0.5022
same,Fold change (treated / control),RL31_HUMAN P62899,0.4309
same,Fold change (treated / control),RL36L_HUMAN Q969Q0,0.4658
same,Fold change (treated / control),RLA1_HUMAN P05386,1.316
same,Fold change (treated / control),RM16_HUMAN Q9NX20,0.5171
same,Fold change (treated / control),RM17_HUMAN Q9NRX2,0.5436
same,Fold change (treated / control),RM19_HUMAN P49406,0.6745
same,Fold change (treated / control),RM37_HUMAN Q9BZE1,0.5246
same,Fold change (treated / control),RM45_HUMAN Q9BRJ2,0.6189
same,Fold change (treated / control),RO60_HUMAN P10155,1.579
same,Fold change (treated / control),ROA1_HUMAN P09651,0.6844
same,Fold change (treated / control),RPA34_HUMAN O15446,0.6508
same,Fold change (treated / control),RPAB4_HUMAN P53803,0.7108
same,Fold change (treated / control),RPAB5_HUMAN P62875,0.5655
